Values quoted from earlier work in US20250154144A1 (CHILDREN'S HOSPITAL MEDICAL CENTER, priority 2021, published 2025).
Some of these results come from one statement about several compounds together.

System: patients with either TP53-mutant or wild-type MDS
Details: cited from earlier work

Nc1ncn([C@@H]2O[C@H](CO)[C@@H](O)[C@H]2O)c(=O)n1 [azacitidine]
complete remission (CR) rates: 15%-20%
